According to US20040023806A1 (priority 1999, published 2004):
Some of these results come from one statement about several compounds together.

Experiments:
Type in all cases: in vivo
Puccinia graminis = details: wheat plants sprayed with 0.02% active substance, infected 24 hours later, fungal infestation assessed 12 days after infection
Erysiphe praminis = assay: Activity against Erysiphe praminis in barley; details: barley plants sprayed with 0.02% active substance, dusted with conidia 3 to 4 hours later, assessed 12 days after infection
Podosphaera leucotricha = assay: Activity against Podosphaera leucotricha on apple shoots; details: apple seedlings sprayed with 0.006% active substance, infected after 24 hours, assessed 12 days after infection
Plasmovara viticola = assay: Activity against Plasmovara viticola in vines; details: vine seedlings sprayed with 0.02% active substance, infected 24 hours later, assessed 6 days after infection

CCO/N=C(/C(C)=N/N=C/c1ccccc1N(C)C(=O)OC)c1ccc(Oc2ccc(C(F)(F)F)cc2)cc1 [Compound 1 from table a, Methyl N-methyl-[2-({2-ethoxyimino-1-methyl-2-[4-(4-trifluoromethylphenoxy)phenyl]ethylidene}hydrazonomethyl)phenyl]carbamate]
activity (Puccinia graminis): more than 80%
activity (Erysiphe praminis): more than 80%

CO/N=C(C)/C(C)=N/OCc1ccccc1NC(=O)OC [Compound 1 from table b, Methyl [2-(2-(E)-methoxyimino-1-methyl-(E)-propylideneaminooxymethyl)phenyl]carbamate]
activity (Podosphaera leucotricha): more than 80%
activity (Puccinia graminis): more than 80%
activity (Erysiphe praminis): more than 80%

CCON=C(C(C)=NN=Cc1ccccc1N(CC)C(=O)OC)c1ccc(Oc2ccc(C(F)(F)F)cc2)cc1 [Compound 2 from table a, methyl N-ethyl-[2-({2-ethoxyimino-1-methyl-2-[4-(4-trifluoromethylphenoxy)phenyl]ethylidene}hydrazonomethyl)phenyl]carbamate]
activity (Puccinia graminis): more than 80%

CCON=C(C(C)=NN=Cc1ccccc1N(COC)C(=O)OC)c1ccc(Oc2ccc(C(F)(F)F)cc2)cc1 [Compound 5 from table a, methyl N-methoxymethyl-[2-({2-ethoxyimino-1-methyl-2-[4-(4-trifluoromethylphenoxy)phenyl]ethylidene}hydrazonomethyl)phenyl]carbamate]
activity (Erysiphe praminis): more than 80%

COCN(C(=O)OC)c1ccccc1CO/N=C(C)/C(C)=N/OC [Compound 9 from table b, Methyl N-methoxymethyl-[2-(2-(E)-methoxyimino-1-methyl-(E)-propylideneaminooxymethyl)phenyl]carbamate]
activity (Podosphaera leucotricha): more than 80%
activity (Plasmovara viticola): more than 80%

Methyl N-ethyl-{2-[2-(4-fluorophenyl)-2-(E/Z)-methoxyimino-1-methyl-(E)-ethylideneaminooxymethyl]phenyl}carbamate [Compound 8 from table b]
activity (Plasmovara viticola): more than 80%
